The other results are listed elsewhere or left out. Shown are side measurements of this screen, not its main read-out; they come without a call. Compounds called inactive in the main read-out are mostly missing here. Potencies come from curve fits of mixed quality, noted in brackets.
Test: qHTS Assay to Find Inhibitors of Chronic Active B-Cell Receptor Signaling
Details: ABC-DLBCL IkBa-CBG/CBR reporter, luminescence ratio (green luciferase fused to IkBa over red control in TMD8 lymphoma cells), 4 h
Summary of the method: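 Doxycycline induced both beetle luciferases in TMD8 lymphoma cells; IKK-driven degradation limits the IkappaBalpha-fused green signal, while red luminescence normalises for cell number and nonspecific effects. Compounds tested up to 46 uM, 4 hrs.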

[1] = measured here: CBR red luminescence, cell number
[2] = measured here: IkBa-CBG green luminescence

SMILES	AC50 [1]	AC50 [2]
Cc1cccc(Cn2cccc(C(=O)Nc3ccc4c(c3)OCCO4)c2=O)c1	15.8 µM [falling, single point]	11.2 µM [rising, partial curve, poor fit]
O=C(c1ccc(Cl)cc1)C12CN3CN(CN(C3)C1)C2	35.5 µM [rising, single point]	–
Cc1ccccc1N1C(=O)NC(=O)/C(=C\c2cc(Br)c(N3CCOCC3)o2)C1=O	2.31 µM [rising, partial curve, poor fit]	–
COC(=O)C1=C(c2ccc(F)cc2OCc2ccccc2)C[C@@H]2CC[C@H]1N2C(=O)NCCOc1ccccc1	32.6 µM [falling, single point]	–
CC(=O)[C@H]1CC[C@H]2[C@@H]3CC[C@H]4C[C@H](O)CC[C@]4(C)[C@H]3C(=O)C[C@]12C	18.4 µM [rising, single point]	–
O=c1oc(-c2cccc(C(F)(F)F)c2)nn1-c1ccc(C(F)(F)F)cn1	2.51 µM [rising, full curve]	–
N=c1c2c(n(Cc3ccc(Cl)cc3Cl)c3c1CCC3)CCCC2	23.1 µM [falling, single point]	–
C=C1C[C@@H]2[C@H](CC[C@]3(C)C(=O)CC[C@@H]23)[C@@]2(C)C=CC(=O)C=C12	3.16 µM [rising, single point]	–
Oc1cc(O)cc(/C=C/c2ccc(O)cc2O)c1	18.4 µM [falling, partial curve, poor fit]	–
Cc1cc(C(=O)O)c(C)n1C1CC1	0.0891 µM [rising, full curve, poor fit]	–
CNCCC(Oc1ccc(C(F)(F)F)cc1)c1ccccc1 (stereo not drawn)	15.8 µM [falling, single point]	–
COC(=O)C1=C(c2ccc(OC(F)(F)F)cc2)C[C@@H]2CC[C@H]1N2C(=O)NCCOc1ccccc1Cl	20.6 µM [falling, single point]	–
CCC1C(C#N)=C(N)Oc2c1c(=O)oc1ccccc21 (stereo not drawn)	6.31 µM [rising, single point]	–
CCc1ccc(N2C(=O)NC(=O)/C(=C/c3cccn3CCOc3ccc(C(C)CC)cc3)C2=O)cc1 (stereo not drawn)	0.411 µM [rising, full curve, poor fit]	23.1 µM [rising, partial curve, poor fit]
COc1ccc(CCNCc2sccc2C)cc1OC	20 µM [falling, partial curve, poor fit]	–
COP(=O)(c1ccc(N(C)C)cc1)C(O)c1ccccc1 (stereo not drawn)	0.708 µM [rising, full curve, poor fit]	–

Shown as a markdown table: three of the compounds above

| SMILES | AC50 [1] | AC50 [2] |
| --- | --- | --- |
| N=c1c2c(n(Cc3ccc(Cl)cc3Cl)c3c1CCC3)CCCC2 | 23.1 µM [falling, single point] | – |
| C=C1C[C@@H]2[C@H](CC[C@]3(C)C(=O)CC[C@@H]23)[C@@]2(C)C=CC(=O)C=C12 | 3.16 µM [rising, single point] | – |
| Oc1cc(O)cc(/C=C/c2ccc(O)cc2O)c1 | 18.4 µM [falling, partial curve, poor fit] | – |

Reference: PubChem BioAssay AID493014 (National Center for Advancing Translational Sciences (NCATS), 2011)
